According to PMC3984256, “A PCNA-Derived Cell Permeable Peptide Selectively Inhibits Neuroblastoma Cell Growth” (PLoS ONE, 2014):
These are yes or no findings as the source states them, for the method shown. Some results given as binding are weak or reduced against the parent protein; the word gives no strength.

Protein sequences, listed by entry. Tags and fused reporters are not part of them.
UniProt P12004: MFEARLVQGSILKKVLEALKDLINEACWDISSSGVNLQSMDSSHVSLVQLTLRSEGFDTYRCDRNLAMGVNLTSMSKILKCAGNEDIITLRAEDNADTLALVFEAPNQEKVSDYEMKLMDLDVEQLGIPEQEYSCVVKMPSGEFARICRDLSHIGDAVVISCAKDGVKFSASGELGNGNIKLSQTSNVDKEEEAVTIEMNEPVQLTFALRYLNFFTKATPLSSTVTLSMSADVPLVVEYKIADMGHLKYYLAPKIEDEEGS

Target: T1, FEN1 peptide containing the PIP-box
T1 sequence (peptide): SKSRQGSTQGRLDDFF
Assay: SPR; Biacore T100; FEN1 PIP-box peptide immobilised on a CM5 chip by carbodiimide coupling; rPCNA 250-1000 nM flowed over in the presence of 0, 500 or 1000 nM caPep; HBS-EP+ (10 mM HEPES pH 7.4, 0.15 M NaCl, 3 mM EDTA, 0.05% P20); 5 ul/min, 3 min contact; both purified

Question: For “Recombinant PCNA (proliferating cell nuclear antigen) (from UniProt P12004 1-261)”, which binding is on record?
Answer: Its binding is “binds”.
